US11202789B2, “Method of treating glycogen storage disease” (Viking Therapeutics, Inc., priority 2016, dated 2021)

System: male Zucker Diabetic fatty (ZDF) rats
Assay: 4-week (28 days) efficacy and safety study in male Zucker Diabetic fatty (ZDF) rats
Type: in vivo
Procedure: Objectives: The objective of the study was to evaluate the efficacy and safety of Compound 2 treatment for 4 weeks in male Zucker Diabetic fatty (ZDF) rats. Total plasma cholesterol, blood glucose levels, liver and muscle glycogen levels, and a plasma clinical chemistry were evaluated. Additionally, histological and biochemical assessments of hepatic steatosis were performed post-mortem. MB07875, a known human thyroid hormone receptor ligand, was included as a comparator in these studies.
Methods: Eight-week old male ZDF rats (n=5/group) were treated orally with Compound 2 or MB07875 for 28 days. The doses of Compound 2 [in 0.5% carboxymethylcellulose (CMC)] were 0.25, 0.5, 1, 2.5, 5, 15 and 50 mg/kg/day. The dose of MB07875 (in 0.5% CMC) was 0.2 mg/kg/day. Body weight was assessed just prior to treatment and at 24 hours following the last dose. Total plasma cholesterol and blood glucose were measured on a weekly basis. […] In addition, the liver was removed and weighed, and a portion freeze-clamped for glycogen and triglyceride analysis. Another portion was placed in 10% neutral buffered formalin for hematoxalin and eosin (H & E) staining. Finally, the heart was excised and weighed.

SMILES: Cc1cc(OCP2(=O)OCCC(c3cccc(Cl)c3)O2)cc(C)c1Cc1ccc(O)c(C(C)C)c1 (centres unmarked) [Compound 2]
- free fatty acid levels (Compound 2 0.25-50 mg/kg/day oral): unaffected
- plasma insulin levels (doses of 1 mg/kg/day and above, oral): tended to be higher
